Results reported in PMC5012862.
These are yes or no findings as the source states them, for the method shown. Sequences can lack the tags named with a protein.

Tests used:
[1] = molecular target: EncFtnsH: truncated C-terminal hexahistidine-tagged variant of Rhodospirillum rubrum encapsulated ferritin (EncFtn, Rru_A0973), amino acids 1-96 plus the tag (Rhodospirillum rubrum) (UniProt Q2RVS1); assay: condition: only the low molecular weight (monomer) SEC fractions, which hold almost no iron; 4.03 mg/ml loaded; SEC-MALLS; pooled monomer fractions of EncFtnsH, 100 ul of 4.03 mg/ml; Superdex 200 10/300 GL; 50 mM Tris-HCl pH 8.0, 150 mM NaCl, 22 C; both purified
[2] = molecular target: EncFtnsH: truncated C-terminal hexahistidine-tagged variant of Rhodospirillum rubrum encapsulated ferritin (EncFtn, Rru_A0973), amino acids 1-96 plus the tag (Rhodospirillum rubrum) (UniProt Q2RVS1); assay: condition: only iron-free protein made in minimal medium, no Fe2+ added; 5 uM; native MS; nESI, 100 mM ammonium acetate pH 8.0, about 5 uM protein; apo protein made in minimal medium, no Fe2+ added; both purified

binding [1]: no binding
binding [2]: no binding
B1: EncFtnsH: truncated C-terminal hexahistidine-tagged variant of Rhodospirillum rubrum encapsulated ferritin (EncFtn, Rru_A0973), amino acids 1-96 plus the tag (domain or fragment, UniProt Q2RVS1 1-96)
chain: MAQSSNSTHEPLEVLKEETVNRHRAIVSVMEELEAVDWYDQRVDASTDPELTAILAHNRDEEKEHAAMTLEWLRRNDAKWAEHLRTYLFTEGPITA
